First the molecules themselves.
B1: RPN1 (protein, UniProt P04843 24-607)
chain: ASSEAPPLINEDVKRTVDLSSHLAKVTAEVVLAHLGGGSTSRATSFLLALEPELEARLAHLGVQVKGEDEEENNLEVRETKIKGKSGRFFTVKLPVALDPGAKISVIVETVYTHVLHPYPTQITQSEKQFVVFEGNHYFYSPYPTKTQTMRVKLASRNVESYTKLGNPTRSEDLLDYGPFRDVPAYSQDTFKVHYENNSPFLTITSMTRVIEVSHWGNIAVEENVDLKHTGAVLKGPFSRYDYQRQPDSGISSIRSFKTILPAAAQDVYYRDEIGNVSTSHLLILDDSVEMEIRPRFPLFGGWKTHYIVGYNLPSYEYLYNLGDQYALKMRFVDHVFDEQVIDSLTVKIILPEGAKNIEIDSPYEISRAPDELHYTYLDTFGRPVIVAYKKNLVEQHIQDIVVHYTFNKVLMLQEPLLVVAAFYILFFTVIIYVRLDFSITKDPAAEARMKVACITEQVLTLVNKRIGLYRHFDETVNRYKQSRDISTLNSGKKSLETEHKALTSEIALLQSRLKTEGSDLCDRVSEMQKLDAQVKELVLKSAVEAERLVAGKLKKDTYIENEKLISGKRQELVTKIDHILDAL
B2: DDOST (protein, UniProt P39656 43-456)
chain: SGPRTLVLLDNLNVRETHSLFFRSLKDRGFELTFKTADDPSLSLIKYGEFLYDNLIIFSPSVEDFGGNINVETISAFIDGGGSVLVAASSDIGDPLRELGSECGIEFDEEKTAVIDHHNYDISDLGQHTLIVADTENLLKAPTIVGKSSLNPILFRGVGMVADPDNPLVLDILTGSSTSYSFFPDKPITQYPHAVGKNTLLIAGLQARNNARVIFSGSLDFFSDSFFNSAVQKAAPGSQRYSQTGNYELAVALSRWVFKEEGVLRVGPVSHHRVGETAPPNAYTVTDLVEYSIVIQQLSNGKWVPFDGDDIQLEFVRIDPFVRTFLKKKGGKYSVQFKLPDVYGVFQFKVDYNRLGYTHLYSSTQVSVRPLQHTQYERFIPSAYPYYASAFSMMLGLFIFSIVFLHMKEKEKSD
B3: STT3A (protein, UniProt P46977 1-705)
chain: MTKFGFLRLSYEKQDTLLKLLILSMAAVLSFSTRLFAVLRFESVIHEFDPYFNYRTTRFLAEEGFYKFHNWFDDRAWYPLGRIIGGTIYPGLMITSAAIYHVLHFFHITIDIRNVCVFLAPLFSSFTTIVTYHLTKELKDAGAGLLAAAMIAVVPGYISRSVAGSYDNEGIAIFCMLLTYYMWIKAVKTGSICWAAKCALAYFYMVSSWGGYVFLINLIPLHVLVLMLTGRFSHRIYVAYCTVYCLGTILSMQISFVGFQPVLSSEHMAAFGVFGLCQIHAFVDYLRSKLNPQQFEVLFRSVISLVGFVLLTVGALLMLTGKISPWTGRFYSLLDPSYAKNNIPIIASVSEHQPTTWSSYYFDLQLLVFMFPVGLYYCFSNLSDARIFIIMYGVTSMYFSAVMVRLMLVLAPVMCILSGIGVSQVLSTYMKNLDISRPDKKSKKQQDSTYPIKNEVASGMILVMAFFLITYTFHSTWVTSEAYSSPSIVLSARGGDGSRIIFDDFREAYYWLRHNTPEDAKVMSWWDYGYQITAMANRTILVDNNTWNNTHISRVGQAMASTEEKAYEIMRELDVSYVLVIFGGLTGYSSDDINKFLWMVRIGGSTDTGKHIKENDYYTPTGEFRVDREGSPVLLNCLMYKMCYYRFGQVYTEAKRPPGFDRVRNAEIGNKDFELDVLEEAYTTEHWLVRIYKVKDLDNRGLSRT
B4: STT3B (protein, UniProt Q8TCJ2 1-826)
chain: MAEPSAPESKHKSSLNSSPWSGLMALGNSRHGHHGPGAQCAHKAAGGAAPPKPAPAGLSGGLSQPAGWQSLLSFTILFLAWLAGFSSRLFAVIRFESIIHEFDPWFNYRSTHHLASHGFYEFLNWFDERAWYPLGRIVGGTVYPGLMITAGLIHWILNTLNITVHIRDVCVFLAPTFSGLTSISTFLLTRELWNQGAGLLAACFIAIVPGYISRSVAGSFDNEGIAIFALQFTYYLWVKSVKTGSVFWTMCCCLSYFYMVSAWGGYVFIINLIPLHVFVLLLMQRYSKRVYIAYSTFYIVGLILSMQIPFVGFQPIRTSEHMAAAGVFALLQAYAFLQYLRDRLTKQEFQTLFFLGVSLAAGAVFLSVIYLTYTGYIAPWSGRFYSLWDTGYAKIHIPIIASVSEHQPTTWVSFFFDLHILVCTFPAGLWFCIKNINDERVFVALYAISAVYFAGVMVRLMLTLTPVVCMLSAIAFSNVFEHYLGDDMKRENPPVEDSSDEDDKRNQGNLYDKAGKVRKHATEQEKTEEGLGPNIKSIVTMLMLMLLMMFAVHCTWVTSNAYSSPSVVLASYNHDGTRNILDDFREAYFWLRQNTDEHARVMSWWDYGYQIAGMANRTTLVDNNTWNNSHIALVGKAMSSNETAAYKIMRTLDVDYVLVIFGGVIGYSGDDINKFLWMVRIAEGEHPKDIRESDYFTPQGEFRVDKAGSPTLLNCLMYKMSYYRFGEMQLDFRTPPGFDRTRNAEIGNKDIKFKHLEEAFTSEHWLVRIYKVKAPDNRETLDHKPRVTNIFPKQKYLSKKTTKRKRGYIKNKLVFKKGKKISKKTV
B5: β-1,4-glucuronyltransferase B4GAT1 (protein, UniProt O43505 1-415)
chain: MQMSYAIRCAFYQLLLAALMLVAMLQLLYLSLLSGLHGQEEQDQYFEFFPPSPRSVDQVKAQLRTALASGGVLDASGDYRVYRGLLKTTMDPNDVILATHASVDNLLHLSGLLERWEGPLSVSVFAATKEEAQLATVLAYALSSHCPDMRARVAMHLVCPSRYEAAVPDPREPGEFALLRSCQEVFDKLARVAQPGINYALGTNVSYPNNLLRNLAREGANYALVIDVDMVPSEGLWRGLREMLDQSNQWGGTALVVPAFEIRRARRMPMNKNELVQLYQVGEVRPFYYGLCTPCQAPTNYSRWVNLPEESLLRPAYVVPWQDPWEPFYVAGGKVPTFDERFRQYGFNRISQACELHVAGFDFEVLNEGFLVHKGFKEALKFHPQKEAENQHNKILYRQFKQELKAKYPNSPRRC

These are yes or no findings as the source states them, for the method shown. Binding seen in cells or lysates may run through a third protein. These calls come from enrichment with a bait or labelling near it, and not all partners need be listed. Where a sequence is shown, tags or fusion partners need not be part of it.

One assay concerns the target T1, GFP-tagged mouse RHBDL4-SA-UIM double mutant (SAUM) (mouse) (UniProt Q8BHC7).
T1 sequence: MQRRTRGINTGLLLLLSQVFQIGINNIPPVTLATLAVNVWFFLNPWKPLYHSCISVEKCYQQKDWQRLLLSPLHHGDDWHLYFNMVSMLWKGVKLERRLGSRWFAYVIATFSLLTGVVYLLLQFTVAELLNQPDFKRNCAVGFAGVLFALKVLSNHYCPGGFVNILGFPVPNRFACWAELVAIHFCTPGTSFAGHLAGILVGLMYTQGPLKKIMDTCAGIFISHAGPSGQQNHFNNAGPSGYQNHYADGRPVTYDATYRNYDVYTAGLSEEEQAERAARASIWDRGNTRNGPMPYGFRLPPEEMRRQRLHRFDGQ
In words: affinity purification with mass spectrometry.
Take B1: the binding result is “binds”. For B2, the binding result is listed as “binds”. Same read-out and setting: for B3 the value was “binds”.

A further assay deals with T2, GFP-tagged mouse RHBDL4-SA (catalytically inactive serine-144-alanine mutant) (mouse) (UniProt Q8BHC7).
T2 sequence: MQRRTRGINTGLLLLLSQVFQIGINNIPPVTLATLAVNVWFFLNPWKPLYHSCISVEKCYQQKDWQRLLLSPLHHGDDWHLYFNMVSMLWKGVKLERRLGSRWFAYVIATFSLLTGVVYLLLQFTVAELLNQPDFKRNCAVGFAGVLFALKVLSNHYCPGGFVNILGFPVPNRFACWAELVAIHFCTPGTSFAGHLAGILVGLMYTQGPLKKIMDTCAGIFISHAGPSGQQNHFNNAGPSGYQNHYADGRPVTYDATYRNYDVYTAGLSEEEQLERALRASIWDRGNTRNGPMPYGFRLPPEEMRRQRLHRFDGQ
In words: affinity purification with mass spectrometry.
Regarding B4, the binding entry was “binds”. Same read-out and setting: under B2 stands “binds”. On the same count and under the same terms, for B5 the value was “binds”.

Source of the values: article doi:10.1101/850776.
